Measurements taken from article PMC7826263.
No constants are given. Whether binding was seen depends on the method and setting. In cells and extracts the contact can be indirect. Some entries that bind do so weakly or less than the wild type.

By UniProt entry, the sequences of proteins in these tests, tags left out.
UniProt Q99708: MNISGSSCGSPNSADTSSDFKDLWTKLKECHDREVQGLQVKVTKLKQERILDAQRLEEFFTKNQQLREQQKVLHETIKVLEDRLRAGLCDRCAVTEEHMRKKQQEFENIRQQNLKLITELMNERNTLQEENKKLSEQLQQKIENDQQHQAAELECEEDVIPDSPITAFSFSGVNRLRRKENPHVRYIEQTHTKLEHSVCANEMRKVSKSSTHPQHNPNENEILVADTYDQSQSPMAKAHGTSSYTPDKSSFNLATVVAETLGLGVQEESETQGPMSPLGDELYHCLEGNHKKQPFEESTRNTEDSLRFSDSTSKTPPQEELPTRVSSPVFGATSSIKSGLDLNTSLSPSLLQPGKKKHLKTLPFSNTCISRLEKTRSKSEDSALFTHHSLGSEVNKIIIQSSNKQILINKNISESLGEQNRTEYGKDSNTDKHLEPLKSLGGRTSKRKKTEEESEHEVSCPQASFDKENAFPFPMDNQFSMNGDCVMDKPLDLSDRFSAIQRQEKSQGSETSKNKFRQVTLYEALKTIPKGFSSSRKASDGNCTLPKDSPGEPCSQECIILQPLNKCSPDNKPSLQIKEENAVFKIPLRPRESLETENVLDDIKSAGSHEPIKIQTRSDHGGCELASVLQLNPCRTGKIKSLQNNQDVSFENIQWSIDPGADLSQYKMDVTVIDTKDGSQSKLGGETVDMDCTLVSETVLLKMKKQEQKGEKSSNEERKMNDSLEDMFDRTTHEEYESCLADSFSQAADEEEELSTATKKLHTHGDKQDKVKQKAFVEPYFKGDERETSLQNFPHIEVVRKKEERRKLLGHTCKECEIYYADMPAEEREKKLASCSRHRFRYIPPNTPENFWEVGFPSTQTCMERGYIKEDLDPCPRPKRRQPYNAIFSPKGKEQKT

Biological target: GFP-CtIP-WT (siRNA-resistant N-terminally GFP-tagged CtIP, wildtype) (human) (UniProt Q99708)
Experiment: co-IP; GFP-Trap agarose IP of GFP-CtIP constructs from cell lysate (RIPA buffer with NEM, diluted to 150 mM NaCl; washes with 500 mM NaCl), immunoblot; some experiments after siRNA depletion of endogenous CtIP, S phase synchronisation or HU treatment for 4 h

- binding: binds
B1: PIAS4 (E3 SUMO ligase), endogenous (protein, UniProt Q8N2W9 1-510)
chain: MAAELVEAKNMVMSFRVSDLQMLLGFVGRSKSGLKHELVTRALQLVQFDCSPELFKKIKELYETRYAKKNSEPAPQPHRPLDPLTMHSTYDRAGAVPRTPLAGPNIDYPVLYGKYLNGLGRLPAKTLKPEVRLVKLPFFNMLDELLKPTELVPQNNEKLQESPCIFALTPRQVELIRNSRELQPGVKAVQVVLRICYSDTSCPQEDQYPPNIAVKVNHSYCSVPGYYPSNKPGVEPKRPCRPINLTHLMYLSSATNRITVTWGNYGKSYSVALYLVRQLTSSELLQRLKTIGVKHPELCKALVKEKLRLDPDSEIATTGVRVSLICPLVKMRLSVPCRAETCAHLQCFDAVFYLQMNEKKPTWMCPVCDKPAPYDQLIIDGLLSKILSECEDADEIEYLVDGSWCPIRAEKERSCSPQGAILVLGPSDANGLLPAPSVNGSGALGSTGGGGPVGSMENGKPGADVVDLTLDSSSSSEDEEEEEEEEEDEDEEGPRPKRRCPFQKGLVPAC
